The values below come from patent US6884600.

The chains behind the UniProt entries cited, without tags or fusion partners. Residues count along the entry.
UniProt P62143, residues 2-327: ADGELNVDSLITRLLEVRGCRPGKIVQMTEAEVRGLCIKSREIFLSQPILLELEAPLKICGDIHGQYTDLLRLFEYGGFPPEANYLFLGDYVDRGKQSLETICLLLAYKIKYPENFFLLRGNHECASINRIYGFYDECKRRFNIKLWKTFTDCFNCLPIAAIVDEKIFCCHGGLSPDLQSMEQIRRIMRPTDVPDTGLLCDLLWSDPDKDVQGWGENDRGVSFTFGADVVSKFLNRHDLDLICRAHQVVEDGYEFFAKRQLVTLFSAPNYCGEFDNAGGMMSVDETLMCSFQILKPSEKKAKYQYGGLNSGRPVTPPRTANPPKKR

Results are given in words; binding and its absence hold for the method and conditions named. Some results given as binding are weak or reduced against the parent protein; the word gives no strength. Tags and fused reporters may be left off the sequences shown.

The assay deals with β isoform of PP1c released from rabbit skeletal muscle PP1G (rabbit) (UniProt P62143). Description: inferred from the concentration giving maximal MLC20 phosphatase activation.

B1: M110-(M1-E309), released from GST with thrombin (protein)
chain: GSPGMKMADAKQKRNEQLKRWIGSETDLEPPVVKRQKTKVKFDDGAVFLAACSSGDTDEVLKLLHRGADINYANVDGLTALHQACIDDNVDMVKFLVENGANINQPDNEGWIPLHAAASCGYLDIAEFLIGQGAHVGAVNSEGDTPLDIAEEEAMEELLQNEVNRQGVDIEAARKEEERIMLRDARQWLNSGHISDVRHAKSGGTALHVAAAKGYTEVLKLLIQAGYDVNIKDYDGWTPLHAAAHWGKEEACRILVDNLCDMETVNKVGQTAFDVADEDILGYLEELQKKQNLLHSEKRDKKSPLIESTANMEA
With B1, the binding entry is “binds”.
